# Laboratory results as given in PubChem BioAssay AID192 (DTP/NCI, 2004).
# The list shows only some results of the screen, not a fair sample: it gathers tests that were run many times, whatever their T/C, doses with no T/C, and many T/C values between a quarter and a half above the control. Further doses and runs are listed elsewhere. T/C gives the treated animals as a percentage of the vehicle group. Some doses have a count of surviving animals in place of a T/C: the source files T/C as zero there, which appears to mark a toxic dose or a test without result, not a measured value. Some doses without a T/C left all or most animals alive at the check, yet need not have been tolerated: the source hardly ever lists a survival T/C far under the control, and the zero likely stands for such cases as well. Survivors were counted at the toxicity check, usually on the fifth day, unless a day is given; later deaths do not show. Schedules are NCI's codes, read here as Q, the interval in days (D) or hours (H), X, the number of doses. For survival time, this PubChem deposit counts one and a half times the control or more as active, and values a quarter to a half above the control carry no call in these data; other NCI protocols may use other cut-offs. Some T/C values are followed by the survivors on the day toxicity was checked, most often the fifth; where none is given, no animal had died by that day.
# System: BDF1 mice, B16 melanoma ip, median survival T/C
# Assay: NCI In Vivo Anticancer Drug Screen. Data for tumor model B16 Melanoma (intraperitoneal) in B6D2F1 (BDF1) mice
# Conditions: T/C endpoint: median survival time, higher T/C = longer survival
# Method in brief: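 In this screen, activity was judged from survival or tumor size in treated versus vehicle-treated tumor-bearing mice, reported as T/C.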
# [1] = dose: 400.0 mg/kg/injection, schedule: Q01DX009 (ip), vehicle: Klucel (hydroxypropylcellulose) (HPC)
# [2] = dose: 100.0 mg/kg/injection, schedule: Q01DX009 (ip), vehicle: Klucel (hydroxypropylcellulose) (HPC)
# [3] = dose: 200.0 mg/kg/injection, schedule: Q01DX009 (ip), vehicle: Klucel (hydroxypropylcellulose) (HPC)
smiles,measurement,setting,value
CN(C)CCCN1c2ccc(O)cc2Sc2ccc(Cl)cc21,survivor count,"dose: 6.2 mg/kg/injection, schedule: Q01DX009 (ip), vehicle: other",10 of 10
same,survivor count,"dose: 12.5 mg/kg/injection, schedule: Q01DX009 (ip), vehicle: other",10 of 10
same,survivor count,"dose: 25.0 mg/kg/injection, schedule: Q01DX009 (ip), vehicle: other",7 of 10
same,T/C,"dose: 25.0 mg/kg/injection, schedule: Q01DX009 (ip), vehicle: saline with Tween-80",126 % of control
same,survivor count,"dose: 50.0 mg/kg/injection, schedule: Q01DX009 (ip), vehicle: other",6 of 10
same,survivor count,"dose: 100.0 mg/kg/injection, schedule: Q01DX009 (ip), vehicle: other",0 of 10
CC1CCC2(C(=O)O)CCC3(C)C(=CCC4C5(C)CCC(O)C(C)(C)C5CCC43C)C2C1C (centres undefined),survivor count,[1],10 of 10
Cc1c(N)nc(C(CC(N)=O)NCC(N)C(N)=O)nc1C(=O)NC(C(=O)NC(C)C(O)CC(=O)NC(C(=O)NC(OC1OC(C)C(N)C(O)C1O)C(O)c1nc(-c2nc(C(=O)NCCCC(N)CC(=O)NCCCNCCCCN)cs2)cs1)C(C)O)C(OC1OC(CO)C(O)C(O)C1OC1OC(CO)C(O)C(OC(N)=O)C1O)c1cnc[nH]1 (centres undefined),T/C,"dose: 0.4 mg/kg/injection, schedule: Q01DX009 (ip), vehicle: saline",135 % of control [9 of 10 alive]
same,survivor count,"dose: 3.2 mg/kg/injection, schedule: Q01DX009 (ip), vehicle: saline",9 of 10
Cn1c(=O)c2[nH]c(Cc3ccc4c(c3)OCO4)nc2n(C)c1=O,survivor count,"dose: 1.56 mg/kg/injection, schedule: Q01DX009 (ip), vehicle: Klucel (hydroxypropylcellulose) (HPC)",10 of 10
same,survivor count,"dose: 3.12 mg/kg/injection, schedule: Q01DX009 (ip), vehicle: Klucel (hydroxypropylcellulose) (HPC)",10 of 10
same,survivor count,"dose: 6.25 mg/kg/injection, schedule: Q01DX009 (ip), vehicle: Klucel (hydroxypropylcellulose) (HPC)",10 of 10
same,survivor count,"dose: 12.5 mg/kg/injection, schedule: Q01DX009 (ip), vehicle: Klucel (hydroxypropylcellulose) (HPC)",10 of 10
same,survivor count,"dose: 25.0 mg/kg/injection, schedule: Q01DX009 (ip), vehicle: Klucel (hydroxypropylcellulose) (HPC)",8 of 10
same,survivor count,"dose: 50.0 mg/kg/injection, schedule: Q01DX009 (ip), vehicle: Klucel (hydroxypropylcellulose) (HPC)",10 of 10
same,survivor count,[2],10 of 10
same,survivor count,[3],7 of 10
same,survivor count,[1],5 of 10
N#CCCC1C2CCC(C2)C1C#N (centres undefined),survivor count,"dose: 20.0 mg/kg/injection, schedule: Q01DX009 (ip), vehicle: Klucel (hydroxypropylcellulose) (HPC)",5 of 10
Cc1ccc(NC(=O)Nc2ccccc2Cl)cc1Cl,survivor count,[3],10 of 10
O=C(Nc1nncs1)c1cccs1,survivor count,"dose: 400.0 mg/kg/injection, schedule: Q01DX009 (ip), vehicle: saline with Tween-80",10 of 10
O=[N+]([O-])c1ccc(/C=C2/c3cc(Cl)ccc3-c3c(Cl)cc(Cl)cc32)cc1,survivor count,"dose: 12.5 mg/kg/injection, schedule: Q01DX009 (ip), vehicle: saline with Tween-80",6 of 6
same,survivor count,"dose: 50.0 mg/kg/injection, schedule: Q01DX009 (ip), vehicle: saline with Tween-80",6 of 6
same,survivor count,"dose: 100.0 mg/kg/injection, schedule: Q01DX009 (ip), vehicle: saline",6 of 6
same,survivor count,"dose: 200.0 mg/kg/injection, schedule: Q01DX009 (ip), vehicle: saline",6 of 6
same,survivor count,"dose: 400.0 mg/kg/injection, schedule: Q01DX009 (ip), vehicle: saline",6 of 6
same,survivor count,"dose: 800.0 mg/kg/injection, schedule: Q01DX009 (ip), vehicle: saline",5 of 6
Cc1ccc(S(=O)(=O)N(Cc2cccc(CN(S(=O)(=O)c3ccc(C)cc3)S(=O)(=O)c3ccc(C)cc3)c2)S(=O)(=O)c2ccc(C)cc2)cc1,survivor count,"dose: 200.0 mg/kg/injection, schedule: Q04DX003 (ip), vehicle: Klucel (hydroxypropylcellulose) (HPC)",10 of 10
same,survivor count,"dose: 400.0 mg/kg/injection, schedule: Q04DX003 (ip), vehicle: Klucel (hydroxypropylcellulose) (HPC)",10 of 10
CS(=O)(=O)Nc1ccccc1N,survivor count,[2],10 of 10
same,survivor count,[3],7 of 10
same,survivor count,[1],0 of 10
Cc1ccccc1NC(=S)N(C)C,survivor count,"dose: 50.0 mg/kg/injection, schedule: Q04DX003 (ip), vehicle: Klucel (hydroxypropylcellulose) (HPC)",10 of 10
same,survivor count,"dose: 100.0 mg/kg/injection, schedule: Q04DX003 (ip), vehicle: Klucel (hydroxypropylcellulose) (HPC)",10 of 10
